# Reference: the supplement of paper PMC6658780
# Where a name gives a salt, the structure may show the parent alone. ± gives the standard deviation of the averaged measurements. This is one part of the list. This data set is noisy: repeats of one test often differ as much as different tests do.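 The A. baumannii clinical isolates were selected for resistance to the partner antibiotic; the screen seeks drugs that restore its effect. Background from coloured compounds is removed by subtracting the start-of-incubation reading.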
# Key:
# [1] = test system: Acinetobacter baumannii NCTC-13301; test: percent growth inhibition of drug alone vs DMSO control; higher = more growth inhibition; conditions: antibiotic (0.125x MIC): none (0.1% DMSO)
# [2] = test system: Acinetobacter baumannii WP-487; test: as above; conditions: antibiotic (0.125x MIC): none (0.1% DMSO)
# [3] = test system: Acinetobacter baumannii NCTC-13301; test: percent growth inhibition of drug + antibiotic vs DMSO control; higher = more growth inhibition
# [4] = test system: Acinetobacter baumannii WP-487; test: as above; conditions: antibiotic (0.125x MIC): colistin
# [5] = antibiotic (0.125x MIC): gentamicin, 7 µM
# [6] = antibiotic (0.125x MIC): gentamicin, 20 µM
# [7] = antibiotic (0.125x MIC): meropenem, 7 µM
# [8] = antibiotic (0.125x MIC): meropenem, 20 µM
# [9] = antibiotic (0.125x MIC): ciprofloxacin, 7 µM
# [10] = antibiotic (0.125x MIC): ciprofloxacin, 20 µM
# [11] = antibiotic (0.125x MIC): tigecycline, 7 µM
# [12] = antibiotic (0.125x MIC): tigecycline, 20 µM
smiles,measurement,setting,value
Cc1cc(C(C)(C)CC(C)(C)C)ccc1OCCOCC[N+](C)(C)Cc1ccccc1 [Methyl benzethonium chloride],percent growth inhibition of drug alone,[1]; 7 µM,-11.7 ± 16%
same,percent growth inhibition of drug alone,[1]; 20 µM,37 ± 9.6%
same,percent growth inhibition of drug alone,[2]; 7 µM,-0.853 ± 4.1%
same,percent growth inhibition of drug alone,[2]; 20 µM,48.9 ± 59%
same,percent growth inhibition,[3]; [5],0.936 ± 9.6%
same,percent growth inhibition,[3]; [6],24.6 ± 28%
same,percent growth inhibition,[3]; [7],-1.53 ± 2.1%
same,percent growth inhibition,[3]; [8],71.4 ± 41%
CCCCCNC(=N)N/N=C/c1c[nH]c2ccc(OC)cc12 [Tegaserod maleate],percent growth inhibition of drug alone,[1]; 7 µM,8.19 ± 1.1%
same,percent growth inhibition of drug alone,[1]; 20 µM,-16.2 ± 44%
same,percent growth inhibition,[3]; [9],8.83 ± 1.1%
same,percent growth inhibition,[3]; [10],32.7 ± 1.9%
same,percent growth inhibition,[3]; [7],14.8 ± 6.2%
same,percent growth inhibition,[3]; [8],56.9 ± 20%
same,percent growth inhibition,[3]; [11],8.93 ± 7.3%
same,percent growth inhibition,[3]; [12],34.5 ± 5%
C[C@@H]1CN(c2c(F)c(N)c3c(=O)c(C(=O)O)cn(C4CC4)c3c2F)C[C@H](C)N1 [Sparfloxacin],percent growth inhibition of drug alone,[1]; 7 µM,7.98 ± 7.7%
same,percent growth inhibition of drug alone,[1]; 20 µM,8.47 ± 2.2%
same,percent growth inhibition,[3]; [9],8.13 ± 2.9%
same,percent growth inhibition,[3]; [10],48.3 ± 15%
NCCc1c[nH]cn1 [Histamine dihydrochloride],percent growth inhibition of drug alone,[1]; 7 µM,-1.11 ± 5.2%
same,percent growth inhibition of drug alone,[1]; 20 µM,15.9 ± 9.9%
same,percent growth inhibition,[3]; [7],-2.96 ± 2.3%
same,percent growth inhibition,[3]; [8],93.9 ± 9.1%
CCOC(=O)Nc1ccc2c(c1)N(C(=O)CCN1CCOCC1)c1ccccc1S2 [Moricizine hydrochloride],percent growth inhibition of drug alone,[1]; 7 µM,-9.53 ± 15%
same,percent growth inhibition of drug alone,[1]; 20 µM,-0.082 ± 6.6%
same,percent growth inhibition,[3]; [9],4.8 ± 17%
same,percent growth inhibition,[3]; [10],2.88 ± 14%
same,percent growth inhibition,[3]; [5],-0.00367 ± 19%
same,percent growth inhibition,[3]; [6],1.31 ± 11%
same,percent growth inhibition,[3]; [7],7.29 ± 21%
same,percent growth inhibition,[3]; [8],-1.17 ± 13%
CC[C@H]1OC(=O)[C@H](C)[C@@H](O[C@H]2C[C@@](C)(OC)[C@@H](O)[C@H](C)O2)[C@H](C)[C@@H](O[C@@H]2O[C@H](C)C[C@H](N(C)C)[C@H]2O)[C@](C)(O)C[C@@H](C)CN(C)[C@H](C)[C@@H](O)[C@]1(C)O [Azithromycin],percent growth inhibition of drug alone,[1]; 7 µM,42.5 ± 6.3%
same,percent growth inhibition of drug alone,[1]; 20 µM,100.7 ± 0.81%
same,percent growth inhibition,[3]; [7],73.4 ± 3.4%
same,percent growth inhibition,[3]; [8],101.1 ± 0.48%
COc1c(N2CCNC(C)C2)c(F)cc2c(=O)c(C(=O)O)cn(C3CC3)c12 (configuration not stated) [Gatifloxacin],percent growth inhibition of drug alone,[1]; 7 µM,6.31 ± 9.6%
same,percent growth inhibition of drug alone,[1]; 20 µM,8.44 ± 0.39%
same,percent growth inhibition,[3]; [9],9.04 ± 4.6%
same,percent growth inhibition,[3]; [10],53.4 ± 14%
Cc1c(F)c(N2CCNC(C)C2)cc2c1c(=O)c(C(=O)O)cn2C1CC1 (configuration not stated) [Grepafloxacin],percent growth inhibition of drug alone,[1]; 7 µM,4.82 ± 3.4%
same,percent growth inhibition of drug alone,[1]; 20 µM,5.67 ± 6.1%
same,percent growth inhibition,[3]; [9],10.7 ± 2.2%
same,percent growth inhibition,[3]; [10],43.1 ± 13%
COC(=O)C1=C(C)NC(C)=C(C(=O)OCC(C)C)C1c1ccccc1[N+](=O)[O-] (configuration not stated) [Nisoldipine],percent growth inhibition of drug alone,[1]; 7 µM,11.4 ± 5.6%
same,percent growth inhibition of drug alone,[1]; 20 µM,-17.8 ± 33%
same,percent growth inhibition,[3]; [11],-1.96 ± 4.6%
same,percent growth inhibition,[3]; [12],-2.51 ± 0.4%
COc1c(N2C[C@@H]3CCCN[C@@H]3C2)c(F)cc2c(=O)c(C(=O)O)cn(C3CC3)c12 [Moxifloxacin],percent growth inhibition of drug alone,[1]; 7 µM,2.29 ± 1.1%
same,percent growth inhibition of drug alone,[1]; 20 µM,14.8 ± 3.1%
same,percent growth inhibition,[3]; [9],16.7 ± 3.8%
same,percent growth inhibition,[3]; [10],76.1 ± 5.8%
CN(C)[C@@H]1C(O)=C(C(N)=O)C(=O)[C@@]2(O)C(O)=C3C(=O)c4c(O)cccc4[C@@](C)(O)[C@H]3C[C@@H]12 [Tetracycline hydrochloride],percent growth inhibition of drug alone,[1]; 7 µM,15.6 ± 7.1%
same,percent growth inhibition of drug alone,[1]; 20 µM,56 ± 1.5%
same,percent growth inhibition,[3]; [7],37.7 ± 19%
same,percent growth inhibition,[3]; [8],87.4 ± 7.6%
N=C(NCCCCCCNC(=N)NC(=N)Nc1ccc(Cl)cc1)NC(=N)Nc1ccc(Cl)cc1 [Chlorhexidine],percent growth inhibition of drug alone,[1]; 7 µM,21 ± 1.6%
same,percent growth inhibition of drug alone,[1]; 20 µM,99.67 ± 0.41%
same,percent growth inhibition,[3]; [9],74.1 ± 1.5%
same,percent growth inhibition,[3]; [10],100.2 ± 0.26%
same,percent growth inhibition,[3]; [7],93 ± 9.9%
same,percent growth inhibition,[3]; [8],99.67 ± 0.38%
Cc1cc(N)c2ccccc2[n+]1CCCCCCCCCC[n+]1c(C)cc(N)c2ccccc21 [Dequalinium dichloride],percent growth inhibition of drug alone,[1]; 7 µM,1.17 ± 3.6%
same,percent growth inhibition of drug alone,[1]; 20 µM,8.34 ± 2.6%
same,percent growth inhibition of drug alone,[2]; 7 µM,6.17 ± 2.7%
same,percent growth inhibition of drug alone,[2]; 20 µM,7.14 ± 12%
same,percent growth inhibition,[3]; [9],28.4 ± 0.56%
same,percent growth inhibition,[3]; [10],64.5 ± 6.8%
Cc1c(O)cccc1C(=O)N[C@@H](CSc1ccccc1)[C@H](O)CN1C[C@H]2CCCC[C@H]2C[C@H]1C(=O)NC(C)(C)C [Nelfinavir mesylate],percent growth inhibition of drug alone,[1]; 7 µM,3.71 ± 0.76%
same,percent growth inhibition of drug alone,[1]; 20 µM,-11.5 ± 23%
same,percent growth inhibition of drug alone,[2]; 7 µM,3.44 ± 2.1%
same,percent growth inhibition of drug alone,[2]; 20 µM,1.66 ± 1.5%
same,percent growth inhibition,[3]; [5],5.84 ± 0.78%
same,percent growth inhibition,[3]; [6],2.22 ± 2%
same,percent growth inhibition,[3]; [11],0.852 ± 2.4%
same,percent growth inhibition,[3]; [12],20.2 ± 5.1%
same,percent growth inhibition,[4]; 7 µM,2.52 ± 0.19%
same,percent growth inhibition,[4]; 20 µM,41.2 ± 64%
C=C1/C(=C\C=C2/CCC[C@]3(C)[C@@H]([C@H](C)CCCC(C)C)CC[C@@H]23)C[C@@H](O)C[C@@H]1O [Alfacalcidol],percent growth inhibition of drug alone,[1]; 7 µM,-13.6 ± 18%
same,percent growth inhibition of drug alone,[1]; 20 µM,-104 ± 1.4%
same,percent growth inhibition,[3]; [9],-14 ± 17%
same,percent growth inhibition,[3]; [10],-39.4 ± 29%
same,percent growth inhibition,[3]; [5],-61.6 ± 40%
same,percent growth inhibition,[3]; [6],-80.4 ± 13%
same,percent growth inhibition,[3]; [7],-4.14 ± 11%
same,percent growth inhibition,[3]; [8],-32.6 ± 42%
same,percent growth inhibition,[3]; [11],-54.1 ± 76%
same,percent growth inhibition,[3]; [12],-74 ± 16%
CCCCC[C@H](O)/C=C/[C@@H]1[C@@H](C/C=C\CCCC(=O)O)[C@@H](O)C[C@H]1O [Dinoprost trometamol],percent growth inhibition of drug alone,[1]; 7 µM,-0.267 ± 1.3%
same,percent growth inhibition of drug alone,[1]; 20 µM,-70.4 ± 70%
same,percent growth inhibition,[3]; [9],4.09 ± 8.5%
same,percent growth inhibition,[3]; [10],-1.13 ± 7.6%
same,percent growth inhibition,[3]; [5],-4.95 ± 6.8%
same,percent growth inhibition,[3]; [6],-5.33 ± 6.1%
same,percent growth inhibition,[3]; [7],2.81 ± 2.7%
same,percent growth inhibition,[3]; [8],4.64 ± 8.8%
same,percent growth inhibition,[3]; [11],-2.55 ± 2.7%
same,percent growth inhibition,[3]; [12],1.25 ± 0.76%
N[C@@H]1CCCCN(c2c(F)cc3c(=O)c(C(=O)O)cn(C4CC4)c3c2Cl)C1 [Besifloxacin hydrochloride],percent growth inhibition of drug alone,[1]; 7 µM,-0.00521 ± 3.2%
same,percent growth inhibition of drug alone,[1]; 20 µM,0.565 ± 2.8%
same,percent growth inhibition,[3]; [9],11.2 ± 6.6%
same,percent growth inhibition,[3]; [10],47.2 ± 8.9%
COc1cc(C(=O)NS(=O)(=O)c2ccccc2C)ccc1Cc1cn(C)c2ccc(NC(=O)OC3CCCC3)cc12 [Zafirlukast],percent growth inhibition of drug alone,[1]; 7 µM,-97.6 ± 110%
same,percent growth inhibition of drug alone,[1]; 20 µM,-106 ± 110%
same,percent growth inhibition,[3]; [9],-1.48 ± 6.1%
same,percent growth inhibition,[3]; [10],-7.92 ± 7%
same,percent growth inhibition,[3]; [5],-0.551 ± 1.3%
same,percent growth inhibition,[3]; [6],-31.2 ± 22%
same,percent growth inhibition,[3]; [7],0.489 ± 0.034%
same,percent growth inhibition,[3]; [8],-0.302 ± 5.9%
same,percent growth inhibition,[3]; [11],-4.64 ± 3.1%
same,percent growth inhibition,[3]; [12],-54.2 ± 64%
